Assay results as given in article PMC12003641.
No constants are given. Whether binding was seen depends on the method and setting. Binding seen in cells or lysates may run through a third protein. A yes stands for co-enrichment or nearness to the bait. Other partners may have been found.

Chains of the proteins cited; added tags and fusions are not shown.
UniProt P40337: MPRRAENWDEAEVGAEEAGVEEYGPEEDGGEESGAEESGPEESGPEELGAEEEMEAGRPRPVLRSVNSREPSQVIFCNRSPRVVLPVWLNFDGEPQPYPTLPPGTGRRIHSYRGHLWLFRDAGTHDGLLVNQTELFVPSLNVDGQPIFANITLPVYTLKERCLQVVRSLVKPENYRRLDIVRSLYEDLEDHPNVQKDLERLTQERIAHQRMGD

What was measured:
VHL-Flag-BirA [1] = target: VHL-Flag-BirA (UniProt P40337); assay: proximity labelling; BioID in HEK293A cells transfected with VHL-Flag-BirA; 10 µM MG132 or vehicle 4 h, 50 µM biotin 1 h; streptavidin pull-down of biotinylated proteins, immunoblot for pRb
VHL-Flag-BirA [2] = target: VHL-Flag-BirA (UniProt P40337); assay: proximity labelling; BioID in HEK293A cells expressing VHL-Flag-BirA; 10 µM MG132 or DMSO 4 h, then 50 µM biotin 1 h; streptavidin beads, SDS-PAGE, in-gel trypsin digest, LC-MS
[3] = target: VHL-Flag-BirA expressed in RCC4 cells (UniProt P40337); assay: proximity labelling; BioID in RCC4 cells with exogenous VHL-BirA, with or without MG132; biotinylation of endogenous pRb

B1: retinoblastoma protein (pRb), endogenous in HEK293A (protein, UniProt P06400 1-928)
chain: MPPKTPRKTAATAAAAAAEPPAPPPPPPPEEDPEQDSGPEDLPLVRLEFEETEEPDFTALCQKLKIPDHVRERAWLTWEKVSSVDGVLGGYIQKKKELWGICIFIAAVDLDEMSFTFTELQKNIEISVHKFFNLLKEIDTSTKVDNAMSRLLKKYDVLFALFSKLERTCELIYLTQPSSSISTEINSALVLKVSWITFLLAKGEVLQMEDDLVISFQLMLCVLDYFIKLSPPMLLKEPYKTAVIPINGSPRTPRRGQNRSARIAKQLENDTRIIEVLCKEHECNIDEVKNVYFKNFIPFMNSLGLVTSNGLPEVENLSKRYEEIYLKNKDLDARLFLDHDKTLQTDSIDSFETQRTPRKSNLDEEVNVIPPHTPVRTVMNTIQQLMMILNSASDQPSENLISYFNNCTVNPKESILKRVKDIGYIFKEKFAKAVGQGCVEIGSQRYKLGVRLYYRVMESMLKSEEERLSIQNFSKLLNDNIFHMSLLACALEVVMATYSRSTSQNLDSGTDLSFPWILNVLNLKAFDFYKVIESFIKAEGNLTREMIKHLERCEHRIMESLAWLSDSPLFDLIKQSKDREGPTDHLESACPLNLPLQNNHTAADMYLSPVRSPKKKGSTTRVNSTANAETQATSAFQTQKPLKSTSLSLFYKKVYRLAYLRLNTLCERLLSEHPELEHIIWTLFQHTLQNEYELMRDRHLDQIMMCSMYGICKVKNIDLKFKIIVTAYKDLPHAVQETFKRVLIKEEEYDSIIVFYNSVFMQRLKTNILQYASTRPPTLSPIPHIPRSPYKFPSSPLRIPGGNIYISPLKSPYKISEGLPTPTKMTPRSRILVSIGESFGTSEKFQKINQMVCNSDRVLKRSAEGSNPPKPLKKLRFDIEGSDEADGSKHLPGESKFQQKLAEMTSTRTRMQKQKMNDSMDTSNKEEK
- binding (VHL-Flag-BirA [1]): binds
- binding (VHL-Flag-BirA [2]): binds

B2: retinoblastoma protein (pRb), endogenous in RCC4 (protein, UniProt P06400 1-928)
chain: MPPKTPRKTAATAAAAAAEPPAPPPPPPPEEDPEQDSGPEDLPLVRLEFEETEEPDFTALCQKLKIPDHVRERAWLTWEKVSSVDGVLGGYIQKKKELWGICIFIAAVDLDEMSFTFTELQKNIEISVHKFFNLLKEIDTSTKVDNAMSRLLKKYDVLFALFSKLERTCELIYLTQPSSSISTEINSALVLKVSWITFLLAKGEVLQMEDDLVISFQLMLCVLDYFIKLSPPMLLKEPYKTAVIPINGSPRTPRRGQNRSARIAKQLENDTRIIEVLCKEHECNIDEVKNVYFKNFIPFMNSLGLVTSNGLPEVENLSKRYEEIYLKNKDLDARLFLDHDKTLQTDSIDSFETQRTPRKSNLDEEVNVIPPHTPVRTVMNTIQQLMMILNSASDQPSENLISYFNNCTVNPKESILKRVKDIGYIFKEKFAKAVGQGCVEIGSQRYKLGVRLYYRVMESMLKSEEERLSIQNFSKLLNDNIFHMSLLACALEVVMATYSRSTSQNLDSGTDLSFPWILNVLNLKAFDFYKVIESFIKAEGNLTREMIKHLERCEHRIMESLAWLSDSPLFDLIKQSKDREGPTDHLESACPLNLPLQNNHTAADMYLSPVRSPKKKGSTTRVNSTANAETQATSAFQTQKPLKSTSLSLFYKKVYRLAYLRLNTLCERLLSEHPELEHIIWTLFQHTLQNEYELMRDRHLDQIMMCSMYGICKVKNIDLKFKIIVTAYKDLPHAVQETFKRVLIKEEEYDSIIVFYNSVFMQRLKTNILQYASTRPPTLSPIPHIPRSPYKFPSSPLRIPGGNIYISPLKSPYKISEGLPTPTKMTPRSRILVSIGESFGTSEKFQKINQMVCNSDRVLKRSAEGSNPPKPLKKLRFDIEGSDEADGSKHLPGESKFQQKLAEMTSTRTRMQKQKMNDSMDTSNKEEK
- binding [3]: binds
